From the M2OR odorant receptor database
Substitutions are numbered along the chain they refer to. Only a part is listed here, and it is no random draw. The calls were merged from several studies; some rest on single wells. This is one part of the list.

Chains of the proteins cited; added tags and fusions are not shown. A line that says so, or that is headed by a name, gives the form on record, which may keep a tag or linker.
O52E2, as listed by the source: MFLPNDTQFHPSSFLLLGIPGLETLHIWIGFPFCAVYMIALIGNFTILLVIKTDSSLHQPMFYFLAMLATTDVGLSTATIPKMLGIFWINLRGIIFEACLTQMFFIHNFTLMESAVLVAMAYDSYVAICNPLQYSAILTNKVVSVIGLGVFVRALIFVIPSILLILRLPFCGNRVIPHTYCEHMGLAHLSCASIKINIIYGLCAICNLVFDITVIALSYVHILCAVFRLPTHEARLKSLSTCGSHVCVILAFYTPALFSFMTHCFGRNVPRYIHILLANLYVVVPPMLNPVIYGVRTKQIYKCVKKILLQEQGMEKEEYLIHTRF
O52E5, as listed by the source: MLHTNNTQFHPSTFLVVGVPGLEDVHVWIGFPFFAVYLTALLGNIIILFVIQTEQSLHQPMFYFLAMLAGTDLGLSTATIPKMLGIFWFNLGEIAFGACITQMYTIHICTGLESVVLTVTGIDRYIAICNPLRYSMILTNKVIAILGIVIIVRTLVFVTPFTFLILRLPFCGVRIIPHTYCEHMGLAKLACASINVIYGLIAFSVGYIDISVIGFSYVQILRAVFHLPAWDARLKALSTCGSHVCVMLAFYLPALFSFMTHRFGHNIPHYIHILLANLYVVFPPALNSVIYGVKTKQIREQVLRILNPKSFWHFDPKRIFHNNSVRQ
O52E8, as listed by the source: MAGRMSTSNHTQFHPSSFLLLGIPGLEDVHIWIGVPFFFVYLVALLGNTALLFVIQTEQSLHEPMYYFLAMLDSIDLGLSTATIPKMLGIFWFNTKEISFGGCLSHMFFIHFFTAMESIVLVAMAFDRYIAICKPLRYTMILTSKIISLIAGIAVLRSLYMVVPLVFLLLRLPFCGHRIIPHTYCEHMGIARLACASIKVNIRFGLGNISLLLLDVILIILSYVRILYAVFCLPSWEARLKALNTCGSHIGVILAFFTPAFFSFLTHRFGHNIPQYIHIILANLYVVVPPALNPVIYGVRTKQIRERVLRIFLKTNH
O52E1, as listed by the source: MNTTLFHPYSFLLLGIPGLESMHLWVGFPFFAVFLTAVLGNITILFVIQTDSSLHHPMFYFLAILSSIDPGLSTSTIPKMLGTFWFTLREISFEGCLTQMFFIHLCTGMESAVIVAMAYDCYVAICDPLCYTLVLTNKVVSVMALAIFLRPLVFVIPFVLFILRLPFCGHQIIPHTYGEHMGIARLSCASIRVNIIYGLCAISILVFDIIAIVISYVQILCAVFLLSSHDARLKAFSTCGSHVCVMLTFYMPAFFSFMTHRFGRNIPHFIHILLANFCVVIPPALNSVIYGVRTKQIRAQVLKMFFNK
O51V1, as listed by the source: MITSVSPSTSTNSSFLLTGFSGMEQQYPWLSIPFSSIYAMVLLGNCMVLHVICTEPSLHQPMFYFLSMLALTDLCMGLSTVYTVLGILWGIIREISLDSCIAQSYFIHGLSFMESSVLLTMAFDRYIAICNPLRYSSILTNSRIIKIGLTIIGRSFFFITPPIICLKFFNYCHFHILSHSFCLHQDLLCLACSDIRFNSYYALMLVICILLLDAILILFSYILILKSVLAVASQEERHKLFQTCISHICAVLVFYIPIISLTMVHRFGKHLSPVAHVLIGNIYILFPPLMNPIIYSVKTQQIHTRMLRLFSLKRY
O52E4, as listed by the source: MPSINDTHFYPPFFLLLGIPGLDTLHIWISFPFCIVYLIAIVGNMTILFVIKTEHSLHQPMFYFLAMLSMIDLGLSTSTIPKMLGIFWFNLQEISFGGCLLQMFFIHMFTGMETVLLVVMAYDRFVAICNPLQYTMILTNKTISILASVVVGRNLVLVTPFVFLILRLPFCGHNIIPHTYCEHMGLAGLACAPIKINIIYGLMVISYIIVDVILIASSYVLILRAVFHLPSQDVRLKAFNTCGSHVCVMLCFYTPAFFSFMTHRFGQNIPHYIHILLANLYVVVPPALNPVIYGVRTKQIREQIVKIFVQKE

Key:
Details in all cases: stereoisomer not certain
O51V1 [1] = tested on: T1, O51V1
T1 sequence (whole entry): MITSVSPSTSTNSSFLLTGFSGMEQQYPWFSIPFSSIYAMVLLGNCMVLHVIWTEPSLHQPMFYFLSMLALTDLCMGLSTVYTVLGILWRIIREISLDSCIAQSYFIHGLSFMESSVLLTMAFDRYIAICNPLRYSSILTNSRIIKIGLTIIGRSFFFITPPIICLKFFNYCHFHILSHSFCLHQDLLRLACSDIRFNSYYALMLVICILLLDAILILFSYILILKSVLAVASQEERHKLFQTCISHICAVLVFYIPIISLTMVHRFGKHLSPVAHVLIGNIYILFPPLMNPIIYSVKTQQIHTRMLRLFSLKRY
Procedure, shortened: (§1)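 Values were gathered from published papers (main text and supplementary material), with extra details requested from the original authors when needed, and checked for typos and inconsistencies. Each receptor–molecule pair is called responsive (active) if the original authors judged the measured signal statistically different from baseline, and non-responsive (inactive) otherwise. Assay methods varied by source, often transient mammalian cell-line luciferase assays. Recorded details include cell line, G-protein, co-transfected protein and tags.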

O51V1 [2] = tested on: T2, O51V1; remark: listed apart in the source
T2 sequence (whole entry): T1 sequence (whole entry) with F30L, W53C, R90G, R189C
Procedure, shortened: as §1

O52A1 = tested on: T3, O52A1
T3 sequence (whole entry): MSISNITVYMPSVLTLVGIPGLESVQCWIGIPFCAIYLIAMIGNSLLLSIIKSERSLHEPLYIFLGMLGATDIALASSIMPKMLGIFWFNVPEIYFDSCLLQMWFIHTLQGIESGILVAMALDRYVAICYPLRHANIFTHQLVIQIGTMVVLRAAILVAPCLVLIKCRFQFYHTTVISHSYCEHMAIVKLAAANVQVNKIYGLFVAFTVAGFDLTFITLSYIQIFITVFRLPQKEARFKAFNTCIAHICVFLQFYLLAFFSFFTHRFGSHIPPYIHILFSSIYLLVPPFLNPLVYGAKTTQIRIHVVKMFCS
Procedure, shortened: as §1

O52B2 = tested on: T4, O52B2
T4 sequence (whole entry): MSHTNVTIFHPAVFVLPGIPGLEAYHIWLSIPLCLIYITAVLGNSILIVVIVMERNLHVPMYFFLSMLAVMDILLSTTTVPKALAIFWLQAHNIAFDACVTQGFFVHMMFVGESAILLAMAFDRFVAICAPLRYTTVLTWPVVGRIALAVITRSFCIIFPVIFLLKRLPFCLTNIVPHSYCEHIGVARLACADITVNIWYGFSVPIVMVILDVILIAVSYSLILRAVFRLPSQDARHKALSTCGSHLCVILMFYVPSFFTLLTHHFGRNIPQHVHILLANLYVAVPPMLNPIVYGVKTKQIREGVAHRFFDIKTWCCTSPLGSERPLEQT
Procedure, shortened: as §1

O52B6 = tested on: T5, O52B6
T5 sequence (whole entry): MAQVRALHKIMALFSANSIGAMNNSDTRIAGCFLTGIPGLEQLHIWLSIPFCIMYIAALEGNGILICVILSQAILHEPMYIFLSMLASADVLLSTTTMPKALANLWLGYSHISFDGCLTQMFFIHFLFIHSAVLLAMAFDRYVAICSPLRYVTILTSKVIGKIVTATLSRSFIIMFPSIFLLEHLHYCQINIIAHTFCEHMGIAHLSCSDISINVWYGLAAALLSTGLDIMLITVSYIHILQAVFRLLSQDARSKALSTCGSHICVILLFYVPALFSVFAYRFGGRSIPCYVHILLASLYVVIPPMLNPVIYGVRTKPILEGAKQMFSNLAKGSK
Procedure, shortened: as §1

O52E1 = tested on: O52E1
Procedure, shortened: as §1

O52E2 = tested on: O52E2
Procedure, shortened: as §1

O52E4 = tested on: O52E4
Procedure, shortened: as §1

O52E5 = tested on: O52E5
Procedure, shortened: as §1

O52E8 = tested on: O52E8
Procedure, shortened: as §1

Measured: odorant receptor agonist call

CCC(C)=O
inactive: O51V1 [1] | O51V1 [2] | O52A1 | O52B2 | O52B6 | O52E1 | O52E2 | O52E4 | O52E5 | O52E8

CCCCOC(C)=O
inactive: O51V1 [1] | O51V1 [2] | O52A1 | O52B2 | O52B6 | O52E1 | O52E2 | O52E4 | O52E5 | O52E8

CS
inactive: O51V1 [1] | O51V1 [2] | O52A1 | O52B2 | O52B6 | O52E1 | O52E2 | O52E4 | O52E5 | O52E8
